Data published in doi:10.1101/2022.08.31.505651.
No constants are given. Whether binding was seen depends on the method and setting. Binding seen in cells or lysates may run through a third protein. Some entries that bind do so weakly or less than the wild type. Tags and fused reporters may be left off the sequences shown.

T1: GFP-C21ORF2 (human) (UniProt O43822)
T1 sequence: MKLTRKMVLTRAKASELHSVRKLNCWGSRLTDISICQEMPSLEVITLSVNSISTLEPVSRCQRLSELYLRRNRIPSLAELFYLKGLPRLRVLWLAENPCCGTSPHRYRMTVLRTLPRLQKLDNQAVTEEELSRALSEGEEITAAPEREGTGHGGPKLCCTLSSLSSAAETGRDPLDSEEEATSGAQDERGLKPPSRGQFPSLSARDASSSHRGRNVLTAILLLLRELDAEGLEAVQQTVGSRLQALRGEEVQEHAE

T2: 3xHA-C21ORF2 wild type (human) (UniProt O43822)
T2 sequence: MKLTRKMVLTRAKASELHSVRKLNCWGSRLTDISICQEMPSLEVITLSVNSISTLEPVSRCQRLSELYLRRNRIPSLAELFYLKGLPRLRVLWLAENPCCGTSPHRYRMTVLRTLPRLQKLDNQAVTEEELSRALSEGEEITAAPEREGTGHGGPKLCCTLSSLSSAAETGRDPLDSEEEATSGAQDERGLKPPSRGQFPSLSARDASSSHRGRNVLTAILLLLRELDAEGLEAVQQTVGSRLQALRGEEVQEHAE

T3: 3xFLAG-NEK1 full length (1-1286) (human) (UniProt Q96PY6)
T3 sequence: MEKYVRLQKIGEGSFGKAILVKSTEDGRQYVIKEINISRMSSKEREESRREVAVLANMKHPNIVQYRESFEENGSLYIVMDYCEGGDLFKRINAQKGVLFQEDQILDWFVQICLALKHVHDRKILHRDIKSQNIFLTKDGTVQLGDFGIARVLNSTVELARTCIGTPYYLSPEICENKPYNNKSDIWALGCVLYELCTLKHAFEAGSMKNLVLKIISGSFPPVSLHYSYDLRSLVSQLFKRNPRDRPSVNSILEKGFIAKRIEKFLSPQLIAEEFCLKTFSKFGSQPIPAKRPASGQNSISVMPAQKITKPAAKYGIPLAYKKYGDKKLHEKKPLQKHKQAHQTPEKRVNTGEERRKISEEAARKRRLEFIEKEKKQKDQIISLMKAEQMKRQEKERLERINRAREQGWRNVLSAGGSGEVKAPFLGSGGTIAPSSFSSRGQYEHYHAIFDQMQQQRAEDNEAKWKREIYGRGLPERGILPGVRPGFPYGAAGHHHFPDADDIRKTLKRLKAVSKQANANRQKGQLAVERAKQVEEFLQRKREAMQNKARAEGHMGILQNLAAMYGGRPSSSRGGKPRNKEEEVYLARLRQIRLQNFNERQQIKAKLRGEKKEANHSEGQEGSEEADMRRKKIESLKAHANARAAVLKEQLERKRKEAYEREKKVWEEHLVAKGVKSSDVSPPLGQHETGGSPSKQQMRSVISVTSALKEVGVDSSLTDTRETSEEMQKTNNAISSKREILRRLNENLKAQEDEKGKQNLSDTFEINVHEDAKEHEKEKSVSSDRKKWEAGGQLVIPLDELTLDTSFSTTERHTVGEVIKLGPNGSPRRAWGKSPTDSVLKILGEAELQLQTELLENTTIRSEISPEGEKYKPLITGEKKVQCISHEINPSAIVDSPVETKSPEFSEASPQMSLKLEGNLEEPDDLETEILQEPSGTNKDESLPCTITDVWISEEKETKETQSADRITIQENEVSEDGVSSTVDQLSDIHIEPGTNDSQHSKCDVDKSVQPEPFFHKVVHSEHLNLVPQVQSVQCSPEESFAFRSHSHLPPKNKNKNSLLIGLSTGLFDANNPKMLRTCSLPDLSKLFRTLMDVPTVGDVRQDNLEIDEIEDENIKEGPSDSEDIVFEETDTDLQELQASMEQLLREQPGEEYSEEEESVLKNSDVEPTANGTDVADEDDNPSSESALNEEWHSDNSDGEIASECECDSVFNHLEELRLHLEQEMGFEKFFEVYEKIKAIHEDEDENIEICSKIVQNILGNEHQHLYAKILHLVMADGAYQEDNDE

B1: 3xFLAG-NEK1 aa 760-1286 (C-terminal acidic domain) (domain or fragment, UniProt Q96PY6-3 760-1286)
chain: LSDTFEINVHEDAKEHEKEKSVSSDRKKWEAGGQLVIPLDELTLDTSFSTTERHTVGEVIKLGPNGSPRRAWGKSPTDSVLKILGEAELQLQTELLENTTIRSEISPEGEKYKPLITGEKKVQCISHEINPSAIVDSPVETKSPEFSEASPQMSLKLEGNLEEPDDLETEILQEPSGTNKDESLPCTITDVWISEEKETKETQSADRITIQENEVSEDGVSSTVDQLSDIHIEPGTNDSQHSKCDVDKSVQPEPFFHKVVHSEHLNLVPQVQSVQCSPEESFAFRSHSHLPPKNKNKNSLLIGLSTGLFDANNPKMLRTCSLPDLSKLFRTLMDVPTVGDVRQDNLEIDEIEDENIKEGPSDSEDIVFEETDTDLQELQASMEQLLREQPGEEYSEEEESVLKNSDVEPTANGTDVADEDDNPSSESALNEEWHSDNSDGEIASECECDSVFNHLEELRLHLEQEMGFEKFFEVYEKIKAIHEDEDENIEICSKIVQNILGNEHQHLYAKILHLVMADGAYQEDNDE
B2: 3xFLAG-NEK1 R261H (enzyme, UniProt Q96PY6-3 1-1286)
chain: MEKYVRLQKIGEGSFGKAILVKSTEDGRQYVIKEINISRMSSKEREESRREVAVLANMKHPNIVQYRESFEENGSLYIVMDYCEGGDLFKRINAQKGVLFQEDQILDWFVQICLALKHVHDRKILHRDIKSQNIFLTKDGTVQLGDFGIARVLNSTVELARTCIGTPYYLSPEICENKPYNNKSDIWALGCVLYELCTLKHAFEAGSMKNLVLKIISGSFPPVSLHYSYDLRSLVSQLFKRNPRDRPSVNSILEKGFIAKHIEKFLSPQLIAEEFCLKTFSKFGSQPIPAKRPASGQNSISVMPAQKITKPAAKYGIPLAYKKYGDKKLHEKKPLQKHKQAHQTPEKRVNTGEERRKISEEAARKRRLEFIEKEKKQKDQIISLMKAEQMKRQEKERLERINRAREQGWRNVLSAGGSGEVKAPFLGSGGTIAPSSFSSRGQYEHYHAIFDQMQQQRAEDNEAKWKREIYGRGLPERGILPGVRPGFPYGAAGHHHFPDADDIRKTLKRLKAVSKQANANRQKGQLAVERAKQVEEFLQRKREAMQNKARAEGHMGILQNLAAMYGGRPSSSRGGKPRNKEEEVYLARLRQIRLQNFNERQQIKAKLRGEKKEANHSEGQEGSEEADMRRKKIESLKAHANARAAVLKEQLERKRKEAYEREKKVWEEHLVAKGVKSSDVSPPLGQHETGGSPSKQQMRSVISVTSALKEVGVDSSLTDTRETSEEMQKTNNAISSKREILRRLNENLKAQEDEKGKQNLSDTFEINVHEDAKEHEKEKSVSSDRKKWEAGGQLVIPLDELTLDTSFSTTERHTVGEVIKLGPNGSPRRAWGKSPTDSVLKILGEAELQLQTELLENTTIRSEISPEGEKYKPLITGEKKVQCISHEINPSAIVDSPVETKSPEFSEASPQMSLKLEGNLEEPDDLETEILQEPSGTNKDESLPCTITDVWISEEKETKETQSADRITIQENEVSEDGVSSTVDQLSDIHIEPGTNDSQHSKCDVDKSVQPEPFFHKVVHSEHLNLVPQVQSVQCSPEESFAFRSHSHLPPKNKNKNSLLIGLSTGLFDANNPKMLRTCSLPDLSKLFRTLMDVPTVGDVRQDNLEIDEIEDENIKEGPSDSEDIVFEETDTDLQELQASMEQLLREQPGEEYSEEEESVLKNSDVEPTANGTDVADEDDNPSSESALNEEWHSDNSDGEIASECECDSVFNHLEELRLHLEQEMGFEKFFEVYEKIKAIHEDEDENIEICSKIVQNILGNEHQHLYAKILHLVMADGAYQEDNDE
B3: 3xHA-C21ORF2 R73P (protein, UniProt O43822-1 1-256)
chain: MKLTRKMVLTRAKASELHSVRKLNCWGSRLTDISICQEMPSLEVITLSVNSISTLEPVSRCQRLSELYLRRNPIPSLAELFYLKGLPRLRVLWLAENPCCGTSPHRYRMTVLRTLPRLQKLDNQAVTEEELSRALSEGEEITAAPEREGTGHGGPKLCCTLSSLSSAAETGRDPLDSEEEATSGAQDERGLKPPSRGQFPSLSARDASSSHRGRNVLTAILLLLRELDAEGLEAVQQTVGSRLQALRGEEVQEHAE
B4: 3xHA-C21ORF2 L224P (protein, UniProt O43822-1 1-256)
chain: MKLTRKMVLTRAKASELHSVRKLNCWGSRLTDISICQEMPSLEVITLSVNSISTLEPVSRCQRLSELYLRRNRIPSLAELFYLKGLPRLRVLWLAENPCCGTSPHRYRMTVLRTLPRLQKLDNQAVTEEELSRALSEGEEITAAPEREGTGHGGPKLCCTLSSLSSAAETGRDPLDSEEEATSGAQDERGLKPPSRGQFPSLSARDASSSHRGRNVLTAILLLPRELDAEGLEAVQQTVGSRLQALRGEEVQEHAE
B5: 3xHA-C21ORF2 T150I (protein, UniProt O43822-1 1-256)
chain: MKLTRKMVLTRAKASELHSVRKLNCWGSRLTDISICQEMPSLEVITLSVNSISTLEPVSRCQRLSELYLRRNRIPSLAELFYLKGLPRLRVLWLAENPCCGTSPHRYRMTVLRTLPRLQKLDNQAVTEEELSRALSEGEEITAAPEREGIGHGGPKLCCTLSSLSSAAETGRDPLDSEEEATSGAQDERGLKPPSRGQFPSLSARDASSSHRGRNVLTAILLLLRELDAEGLEAVQQTVGSRLQALRGEEVQEHAE

Columns and labels:
Test in all cases: co-IP
GFP-C21ORF2 (human) = molecular target: T1, GFP-C21ORF2 (human)
[1] = molecular target: T2, 3xHA-C21ORF2 wild type (human)
[2] = molecular target: T3, 3xFLAG-NEK1 full length (1-1286) (human)

| Binder | binding [2] | also measured |
| --- | --- | --- |
| B1 |  | binding (GFP-C21ORF2 (human)): binds |
| B2 |  | binding [1]: binds |
| B3 | binds |  |
| B4 | binds |  |
| B5 | binds |  |
